Assay results

Source: PubChem BioAssay AID893 (NCATS, 2007).

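Recombinant human HSD17B10 (3-hydroxyacyl-CoA dehydrogenase type-2) enzyme, with activity tracked as NADH fluorescence build-up in a kinetic read. Each compound was run as a 15-point series from about 0.0007 to 57 µM. Fitted half-maximal potency (AC50) from the inhibition curve; a lower value means a more potent inhibitor. The record's title names HSD17B4; its protocol and target entry give this enzyme. Active means a well-fitted inhibition curve with a large enough effect; inconclusive means a weak, poorly fitted or top-concentration-only effect.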

Values are in µM. These entries are mostly ones the record files as inconclusive; other results of the assay are not listed here. A potency from a partial, single-point or poor curve is only a rough figure. Some entries filed as inconclusive have a full curve.

{"smiles": "COC(=O)CCc1c(C)c(C(=O)c2ccco2)c2ccccn12", "Potency (µM)": "39.81", "outcome": "inconclusive", "curve": "inhibitor, single point"}
{"smiles": "COCCCn1c(=S)[nH]c2ccc(N3CCOCC3)cc2c1=O", "Potency (µM)": "39.81", "outcome": "inconclusive", "curve": "inhibitor, single point"}
{"smiles": "CCC(=O)Nc1c(C#N)c2nc3ccccc3nc2n1-c1ccccc1C", "Potency (µM)": "25.12", "outcome": "active"}
{"smiles": "Cc1ccc2nc(NCCCN3CCOCC3)c(C=NCCCN3CCOCC3)c(=O)n2c1", "Potency (µM)": "15.85", "outcome": "inconclusive", "curve": "inhibitor, partial curve"}
{"smiles": "CCCCCC[C@@H]([C@@H](C)O)n1cnc2c(N)ncnc21", "Potency (µM)": "31.62", "outcome": "inconclusive", "curve": "inhibitor, partial curve"}
{"smiles": "CCC(C)(C)n1nnnc1C(c1cc2ccc(OC)cc2[nH]c1=O)N1CCc2ccccc2C1", "stereo": "stereo not shown", "Potency (µM)": "3.981", "outcome": "inconclusive", "curve": "inhibitor, partial curve"}
{"smiles": "O=C1CCN2C=Nc3cccc4ccc1c2c34", "Potency (µM)": "25.12", "outcome": "inconclusive", "curve": "inhibitor, single point"}
{"smiles": "CCCCOn1c(C)c(C(=O)OCC)c2c3nonc3ccc21", "Potency (µM)": "31.62", "outcome": "active"}
{"smiles": "O=C(c1cccn2c(=O)c3ccc(Cl)cc3nc12)N1CCN(Cc2ccc3c(c2)OCO3)CC1", "Potency (µM)": "7.943", "outcome": "inconclusive", "curve": "inhibitor, full curve"}
{"smiles": "NCCC[C@@H](N)C(=O)O", "Potency (µM)": "3.162", "outcome": "inconclusive", "curve": "inhibitor, single point"}
{"smiles": "Cc1ccc2nc(N3CCC(C(=O)O)CC3)nc(-c3ccccc3)c2c1", "Potency (µM)": "39.81", "outcome": "inconclusive", "curve": "inhibitor, single point"}
{"smiles": "Nc1ccc(-n2c(N)c(C(=O)NCc3ccc4c(c3)OCO4)c3nc4ccccc4nc32)cc1", "Potency (µM)": "39.81", "outcome": "inconclusive", "curve": "inhibitor, single point"}
{"smiles": "Cc1cccn2c(=O)c3cc(C(=O)NCC4CCCO4)c(=N)n(Cc4cccnc4)c3nc12", "stereo": "stereo not shown", "Potency (µM)": "12.59", "outcome": "active"}
{"smiles": "CC1CCCCN1C(=O)c1cnn2c(C(F)(F)F)cc(-c3ccco3)nc12", "stereo": "stereo not shown", "Potency (µM)": "25.12", "outcome": "inconclusive", "curve": "inhibitor, single point"}
{"smiles": "CC(C)[C@H]1C(=O)C(C(N)=O)=C(O)[C@]2(O)C(=O)C3=C(O)c4c(O)ccc(N(C)C)c4C[C@H]3C[C@@H]12", "Potency (µM)": "39.81", "outcome": "inconclusive", "curve": "inhibitor, single point"}
{"smiles": "O=c1ccc2cc(O[C@H]3O[C@@H](CO)[C@@H](O)[C@@H](O)[C@@H]3O)c(O)cc2o1", "Potency (µM)": "12.59", "outcome": "active"}
{"smiles": "COCCN1C=C(C(=O)OC)C(c2ccc3c(c2)OCO3)C(C(=O)OC)=C1", "Potency (µM)": "31.62", "outcome": "inconclusive", "curve": "inhibitor, single point"}
{"smiles": "O=c1c(-c2cc(F)cc(F)c2)nc2cnc(N3CCOCC3)nc2n1C[C@H]1CCCO1", "Potency (µM)": "25.12", "outcome": "inconclusive", "curve": "inhibitor, single point"}
{"smiles": "COc1ccc(C2NC3=C(CCCC3)C(C#N)(C#N)C2(C#N)C#N)cc1", "stereo": "stereo not shown", "Potency (µM)": "31.62", "outcome": "inconclusive", "curve": "inhibitor, single point"}
{"smiles": "O=C(COC(=O)c1cncc(Br)c1)NCc1ccco1", "Potency (µM)": "39.81", "outcome": "inconclusive", "curve": "inhibitor, single point"}

Some entries from above, unchanged:

SMILES,Potency (µM),outcome,curve
Cc1cccn2c(=O)c3cc(C(=O)NCC4CCCO4)c(=N)n(Cc4cccnc4)c3nc12 (stereo not shown),12.59,active,-
Cc1ccc2nc(NCCCN3CCOCC3)c(C=NCCCN3CCOCC3)c(=O)n2c1,15.85,inconclusive,"inhibitor, partial curve"